Measured data: PubChem BioAssay AID1671195 (Yale University, 2021)
In all, the deposit lists about 22,000 reagents; below is a random part of them. In the full data, about 1,510 (6.9%) were called active. 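Active includes knockdowns raising or lowering LDL uptake; positive z-scores mean more uptake, negative mean less.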 Entries without a mark were called inactive.

Screen: 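Knockdowns that increase or decrease uptake of fluorescent LDL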 (primary screen)
Cell system: human Huh7 hepatoma cells
Reagents: siRNA pool against human genes, 18 nM
Time to read-out: about 2 to 2.5 days of knockdown, then 8 h LDL uptake
Treatment: DiI-labelled LDL at 30 µg/ml for 8 h, in lipoprotein-deficient serum medium
Read-out: 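Per-cell DiI-LDL intensity by automated imaging; well means scaled to the plate median and given as a robust z-score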
Reading the numbers: robust z-score: higher = more LDL uptake after knockdown
Rule for the call: 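Active when two or more replicates show a robust z-score above 2 or below -2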

gene knocked down | robust z-score, replicate 1 | robust z-score, replicate 2 | robust z-score, replicate 3
ETNK2 | 0.13 | 0.133 | -0.746
PTPRH | -0.614 | -0.789 | -0.475
POLE3 | -0.278 | -0.563 | -0.701
GVINP1 | -0.8 | -0.737 | -0.599
MAGEB17 | 1.57 | 1.08 | 0.803
RGPD4 | 3.56 (active) | 3.12 | 3.58
C1QTNF8 | 0.486 | 0.572 | 0.735
MAPK13 | -1.36 | -0.927 | -0.793
ARAP1 | 0.406 | 0.154 | 0.548
KIF5C | 0.933 | 0.228 | 0.0321
CES1P1 | 0.482 | 2.27 | 1.49
ERLIN1 | 0.872 | -0.0635 | 1.95
OR10S1 | 0.589 | -0.16 | -0.289
MTNR1B | 1.76 (active) | 2.83 | 2.78
ZNF99 | 0.0562 | -1.82 | -1.35
PLP2 | -1.11 | -1.01 | -0.542
RBMXL3 | 0.238 | -0.148 | -0.0838
SULT2B1 | -0.776 | -0.338 | -0.647
RNF151 | 0.243 | 0.201 | -0.169
LOC387884 (retired record) | 0.564 | 0.912 | 0.638
CSN2 | 1.73 | 1.72 | 0.704
SCHIP1 | 0.567 | 0.14 | -2.48
PFN2 | 1.19 | 0.714 | -0.515
MDN1 | 1.11 | 1.31 | 1.52
OR8I2 | -1.83 | -1.45 | -1.83
TRIM38 | -0.0994 | -0.166 | 0.616
CALCB | 0.0249 | 0.216 | -0.532
EPO | -0.482 | 0.116 | 0.5
LINC00885 | -0.755 | -0.881 | -0.698
IFNG | -0.24 | -0.572 | -0.00726
SLC25A44 | 0.365 | 0.991 | 2.43
TSGA13 | -0.953 | -0.718 | -0.615
PPP4R3B | 1.69 | 1.46 | 0.398
MYH9 | 1.72 | 0.889 | 0.291
CXorf38 | 0.723 | 0.699 | 1.15
C1orf198 | 2.69 (active) | 2.21 | 3.24
RIMBP2 | -1.72 | -1.23 | -1.07
HSPB6 | -0.316 | -0.435 | -0.181
ANKRD44 | -0.5 | 0.663 | -0.47
MRGPRG-AS1 | 0.0448 | -0.035 | -0.231
TMEM273 | -1.02 | -0.748 | -0.598
LOC401128 (retired record) | 0.674 | 0.558 | 0.578
AMIGO1 | -0.84 | -0.62 | -0.273
MAP3K1 | -2.34 (active) | -1.68 | -2
FATE1 | 0.0754 | 0.103 | 0.573
YBX2 | -1.21 | -0.989 | -0.805
ODF1 | 0.707 | 0.94 | -0.0452
GSTA5 | -0.307 | -2.18 | 0.491
OR1I1 | -0.322 | 0.615 | 0.422
KLRC3 | -0.845 | -1.25 | -0.797
KDF1 | -0.39 | -0.992 | -1.65
MEDAG | 1.71 | 1.52 | 1.64
TMEM214 | 0.211 | 1 | -0.251
RPS18 | -0.932 | 0.407 | 0.282
NFX1 | -0.371 | -1.13 | -0.759
UQCC4 | 0.665 | 0.49 | 0.719
IRX6 | 0.593 | 0.655 | 0.466
ERVFC1-1 | -0.207 | -0.0989 | -0.0426
MFNG | -1.13 | 1.7 | 0.133
LOC400714 (retired record) | -0.315 | -0.73 | 0.02
ATP1A4 | -0.979 | -0.108 | -1.32
APOA2 | 1.86 | 2.69 | 1.25
CSTF1 | -0.19 | -0.0258 | -0.527
CCSER1 | -0.51 | -0.81 | -0.289
MTARC1 | -0.74 | -0.952 | -1.17
NANP | -0.967 | -0.178 | -0.837
CACNA1G-AS1 | 1.58 | 1.88 | 1.64
DYNC1I2 | -0.246 | 0.378 | -0.619

Single entries from above.
Value for C1orf198 in “robust z-score, replicate 3”: 3.24 (active)
Value for YBX2 under “robust z-score, replicate 3”: -0.805
For “robust z-score, replicate 2”, CACNA1G-AS1 shows 1.88
Result of LOC387884 (retired record) in “robust z-score, replicate 1”: 0.564
Value for RBMXL3 in “robust z-score, replicate 3”: -0.0838
